This assay in a line: qHTS Assay to Find Inhibitors of Chronic Active B-Cell Receptor Signaling. The note with it: ABC-DLBCL IkBa-CBG/CBR reporter, luminescence ratio (green luciferase fused to IkBa over red control in TMD8 lymphoma cells), 4 h. Summed up:
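TMD8 ABC-DLBCL cells carrying doxycycline-inducible green luciferase fused to IkappaBalpha plus unfused red luciferase were exposed to compounds (up to 46 uM) for 4 hrs at 37C. Activity came from the overlap-corrected green/red luminescence ratio.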
(Quantitative high-throughput screening tests each substance at several concentrations.)

Setting [1] is: measured here: CBR red luminescence, cell number.

Each structure is given as a SMILES string. The list shows a part of the results. Further columns of the screen follow, without active or inactive calls. The list favours compounds with an active or inconclusive main result. Potencies come from curve fits of mixed quality, noted in brackets.

Usually AC50 stands for the concentration at which the activity in the assay is half-maximal. Turning to `O=C(CCC(=O)Nc1ccccc1)NNC(=O)c1ccco1`, the AC50 under setting [1] was 0.092 µM [rising, full curve, poor fit].

As for `CCCCCCC(=O)N(O)C1CC(=O)N(Cc2ccccc2)C1=O` (stereo not drawn), under setting [1], the AC50 was 3.55 µM [falling, partial curve, poor fit].

Turning to `C=CCn1c(=O)c2c3c(sc2n2c(Nc4ccc(C(=O)OCC)cc4)nnc12)CCCC3`, the AC50 under setting [1] was 20.6 µM [falling, partial curve, poor fit].

For `CCN(Cc1ccncc1)Cc1c(O)ccc2cc(Br)ccc12`, the AC50 under setting [1] was 35.5 µM [falling, single point].

For `COc1cccc(N/C(N)=N/c2nc(CSc3ccccn3)cc(=O)[nH]2)c1`, the half-maximal activity concentration (AC50) reads like this: under setting [1], 3.98 µM [rising, partial curve, poor fit]; (measured here: IkBa-CBG green luminescence) 3.98 µM [falling, single point].

`O=C(Nc1ccccc1Oc1cccnc1)C1CCCN(Cc2ccc(F)cc2)C1` (stereo not drawn): the AC50 under setting [1] is 35.5 µM [falling, single point].

In the case of `COc1ccc(Nc2cc(C(=O)NCc3cccnc3)c3ccccc3n2)c(OC)c1`, the AC50 under setting [1] is 12.6 µM [falling, partial curve, poor fit].

As for `COc1ccc(/C(O)=C2/C(=O)C(=O)N(CCN(C)C)C2c2ccccn2)cc1OC` (stereo not drawn), the AC50 under setting [1] was 18.4 µM [rising, single point].

On to `O=C(CCCCCn1c(=S)[nH]c2cc3c(cc2c1=O)OCO3)N1CCN(Cc2ccccc2)CC1`, for which the AC50 under setting [1] was 6.51 µM [falling, single point].

As to `O=S(=O)(N1CCCCC1)N1CCCN(S(=O)(=O)N2CCCCC2)CC1`, under setting [1], the AC50 is 14.6 µM [rising, partial curve, poor fit].

With `CCOc1cc(CNCCO)cc(Br)c1OCc1ccccc1`, the AC50 under setting [1] is 14.1 µM [falling, single point].

For `CC1CCN(C(=O)COC(=O)CNC(=O)c2ccccc2F)CC1`, the half-maximal activity concentration (AC50) under setting [1] was 6.51 µM [rising, single point].

As for `CC(Sc1nnc(Cc2ccccc2)o1)C(=O)Nc1ccccc1[N+](=O)[O-]` (stereo not drawn), the AC50 under setting [1] was 29.1 µM [rising, single point].

In the case of `CN1CCN(S(=O)(=O)c2cccc(C(=O)Nc3sc4c(c3-c3nc5ccccc5[nH]3)CCCC4)c2)CC1`, the AC50 under setting [1] was 5.8 µM [rising, full curve].

`CCCn1nnc(NCc2ccc(OCc3cccs3)c(OC)c2)n1`: the AC50 under setting [1] was 5.17 µM [rising, single point].

On to `O=C(NNC(=O)c1ccccc1O)c1ccc(Cl)c(S(=O)(=O)N2CCc3ccccc32)c1`, for which, under setting [1], the AC50 is 29.1 µM [falling, single point].

As to `COc1ccccc1NS(=O)(=O)c1cc(NC(=O)c2ccc3c(c2)OCCO3)ccc1C`, the AC50 under setting [1] was 25.9 µM [falling, partial curve, poor fit].

Source of the values: PubChem BioAssay AID493014 (National Center for Advancing Translational Sciences (NCATS), 2011).
